The other results are listed elsewhere or left out. These are further read-outs of the screen, such as a control signal, another cell line or another target. No call is given for them. The list favours compounds with an active or inconclusive main result. Potencies come from curve fits of mixed quality, noted in brackets.
Assay: qHTS Assay for Lipid Storage Modulators in Drosophila S3 Cells;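 as to cell number change: cells counted by Cell Tracker Red CMTPX staining in the red channel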
Conditions: BODIPY lipid droplet fluorescence, 18-24 h; for cell number change: measured here: cell count max response, cells fed with added oleic acid
Outline: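 Laser-scanning cytometry quantifies lipid droplet accumulation (500–530 nm total intensity; droplet/cell object ratio) in oleic acid-fed (400 uM added) Drosophila S3 cells treated with a concentration series. 20 uM Triacsin C defined 100% inhibition.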

[1] = measured here: lipid fluorescence (Fed channel) AC50, cells fed with added oleic acid
[2] = measured here: cell number channel AC50, cells fed with added oleic acid

| Compound | cell number change [%] | AC50 [1] | AC50 [2] |
| --- | --- | --- | --- |
| COC(=O)[C@@]12CCCN1[C@H](c1ccc(-c3cccc(Cl)c3)c(OC)c1)[C@H]1C(=O)N(C)C(=O)[C@H]12 | -5.81 | 580 nM [falling, single point] |  |
| O=C(N/N=C/c1cccc2ccccc12)c1ccc(CN2CCOCC2)cc1 | 36.9 |  |  |
| CC(C)NC(=O)NC(=O)CSc1ncccn1 | -38.5 |  | 4110 nM [falling, full curve] |
| O=[N+]([O-])c1ccc(N/N=C/c2cccc(O)c2O)c(S(=O)(=O)N2CCOCC2)c1 | -5.73 |  |  |
| O=C1NCCN1Cc1ccccc1F | 30.4 | 1460 nM [falling, partial curve] | 920 nM [falling, partial curve] |
| Cc1ccc(CN(C(=O)N2CCN(C)CC2)S(=O)(=O)c2ccc(C)cc2)cc1 |  |  | 130 nM [rising, full curve, poor fit] |
| O=[N+]([O-])c1ccc(N/N=C/c2cn(-c3ccccc3)nc2-c2ccccc2)cc1 | 16.1 |  |  |
| O=C(Sc1nnc(-c2ccccc2)o1)N1c2ccccc2Sc2ccccc21 | -24.7 | 13000 nM [falling, partial curve] |  |
| Cn1c(=NC(=O)c2ccco2)sc2ccccc21 | -0.637 |  | 6510 nM [falling, single point] |
| CC(NC(=O)COC(=O)C1=NN(c2ccccc2)C(=O)CC1)c1ccccc1 (configuration not stated) | -23.2 |  | 731 nM [falling, full curve, poor fit] |
| OCCN1CCN(CC(O)COc2ccc(-c3ccccc3)cc2)CC1 (configuration not stated) | -36.4 | 651 nM [falling, full curve, poor fit] | 29100 nM [falling, single point] |
| COc1ccc(CN2C(=S)NC(C)(C)CC2(C)O)cc1 (configuration not stated) | -42 | 461 nM [falling, full curve, poor fit] |  |
| Cn1c(CC(=O)Nc2ccccc2)nnc1SCC(=O)NC1=NCCS1 | 12.4 |  |  |
| O=S(=O)(c1ccccc1)c1ccc(N2CCCCCC2)cc1 | -10.9 |  |  |
| CCOC(=O)C1CCCN(C(=O)COc2ccccc2O)C1 (configuration not stated) | 32.4 | 6510 nM [rising, partial curve] | 9200 nM [rising, partial curve] |
| CCc1ccc(N2C(=O)CN(Cc3ccc(OC)c(OC)c3)C2=S)cc1 | 2.65 | 1460 nM [rising, full curve, poor fit] |  |
| CC(NC(=O)C(=O)N1CCCCC1)C(c1cccs1)N1CCN(c2ccc(F)cc2)CC1 (configuration not stated) | -2.59 | 29100 nM [rising, single point] | 4610 nM [rising, single point] |

2 records drawn at random from those above:

| Compound | cell number change [%] | AC50 [1] | AC50 [2] |
| --- | --- | --- | --- |
| O=[N+]([O-])c1ccc(N/N=C/c2cccc(O)c2O)c(S(=O)(=O)N2CCOCC2)c1 | -5.73 |  |  |
| CC(NC(=O)C(=O)N1CCCCC1)C(c1cccs1)N1CCN(c2ccc(F)cc2)CC1 (configuration not stated) | -2.59 | 29100 nM [rising, single point] | 4610 nM [rising, single point] |

From PubChem BioAssay AID2685 (National Center for Advancing Translational Sciences (NCATS), 2010)
